Some of the results follow. The main result of the screen is listed elsewhere. These columns were measured beside it and carry no call. Most of these compounds were active or inconclusive in the main read-out, so they are no random draw. Potencies come from curve fits of mixed quality, noted in brackets.
Assay: qHTS Assay to Find Inhibitors of Chronic Active B-Cell Receptor Signaling
Details: ABC-DLBCL IkBa-CBG/CBR reporter, luminescence ratio (green luciferase fused to IkBa over red control in TMD8 lymphoma cells), 4 h; measured here: CBR red luminescence, cell number
Summary of the method: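 Concentration-response series (up to 46 uM) were applied to TMD8 dual-reporter cells for 4 h at 37C with doxycycline. Green/red ratio, after filter-overlap correction, defined %Activity; red signal alone was normalised to basal cells and zero luminescence.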

| SMILES | AC50 |
| --- | --- |
| COc1cc(/C=N/Nc2ccc(Cl)c(C(=O)O)c2)ccc1OC(=O)c1ccc(F)cc1 | 3.98 µM [falling, full curve, poor fit] |
| Cc1ccccc1N/N=C/c1sc(=O)n(Cc2cccc(C(=O)O)c2)c1Cl | 20 µM [falling, partial curve, poor fit] |

Source: PubChem BioAssay AID493014 (National Center for Advancing Translational Sciences (NCATS), 2011)
